Assay results: doi:10.1101/2022.08.31.505651
Results are given in words; binding and its absence hold for the method and conditions named. Binding seen in cells or lysates may run through a third protein. Some results given as binding are weak or reduced against the parent protein; the word gives no strength. Where a sequence is shown, tags or fusion partners need not be part of it.

Columns and labels:
[1] = target: T1, 3xFLAG-NEK1 D146A (kinase-dead) (human) (UniProt Q96PY6); assay: co-IP
T1 sequence: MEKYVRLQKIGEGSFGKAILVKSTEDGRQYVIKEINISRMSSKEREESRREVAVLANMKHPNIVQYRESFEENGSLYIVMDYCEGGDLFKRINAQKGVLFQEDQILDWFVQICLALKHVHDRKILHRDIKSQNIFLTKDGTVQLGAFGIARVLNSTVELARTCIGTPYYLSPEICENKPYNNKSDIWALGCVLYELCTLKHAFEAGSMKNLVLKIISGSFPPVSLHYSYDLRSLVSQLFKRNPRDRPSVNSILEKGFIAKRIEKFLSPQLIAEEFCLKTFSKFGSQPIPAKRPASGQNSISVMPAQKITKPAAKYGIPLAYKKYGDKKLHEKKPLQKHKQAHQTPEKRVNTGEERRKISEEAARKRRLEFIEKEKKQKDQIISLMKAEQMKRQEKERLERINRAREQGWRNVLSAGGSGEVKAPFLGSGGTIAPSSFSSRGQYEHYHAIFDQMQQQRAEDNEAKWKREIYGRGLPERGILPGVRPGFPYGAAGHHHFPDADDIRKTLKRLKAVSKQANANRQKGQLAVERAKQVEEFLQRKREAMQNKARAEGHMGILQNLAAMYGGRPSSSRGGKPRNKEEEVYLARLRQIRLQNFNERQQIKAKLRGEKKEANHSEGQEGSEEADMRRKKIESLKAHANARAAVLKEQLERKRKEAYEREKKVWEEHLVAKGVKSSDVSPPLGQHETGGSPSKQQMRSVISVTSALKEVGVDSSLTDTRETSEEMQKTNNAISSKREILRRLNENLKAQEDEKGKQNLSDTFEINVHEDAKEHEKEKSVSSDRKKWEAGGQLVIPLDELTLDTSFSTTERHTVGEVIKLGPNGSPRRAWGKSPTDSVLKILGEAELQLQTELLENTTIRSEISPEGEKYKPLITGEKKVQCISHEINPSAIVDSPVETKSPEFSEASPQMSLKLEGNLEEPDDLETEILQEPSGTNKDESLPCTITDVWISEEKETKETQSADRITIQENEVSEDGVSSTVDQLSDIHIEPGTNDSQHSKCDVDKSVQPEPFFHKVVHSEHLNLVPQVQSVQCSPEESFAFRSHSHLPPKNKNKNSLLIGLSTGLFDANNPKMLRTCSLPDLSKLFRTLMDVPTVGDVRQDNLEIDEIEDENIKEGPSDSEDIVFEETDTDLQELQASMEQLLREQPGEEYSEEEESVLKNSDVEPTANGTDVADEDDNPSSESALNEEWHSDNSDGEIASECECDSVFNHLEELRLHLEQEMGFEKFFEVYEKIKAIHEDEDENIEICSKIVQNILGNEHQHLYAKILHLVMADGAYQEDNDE

[2] = target: T2, 3xFLAG-NEK1 full length (1-1286) (human) (UniProt Q96PY6); assay: co-IP
T2 sequence: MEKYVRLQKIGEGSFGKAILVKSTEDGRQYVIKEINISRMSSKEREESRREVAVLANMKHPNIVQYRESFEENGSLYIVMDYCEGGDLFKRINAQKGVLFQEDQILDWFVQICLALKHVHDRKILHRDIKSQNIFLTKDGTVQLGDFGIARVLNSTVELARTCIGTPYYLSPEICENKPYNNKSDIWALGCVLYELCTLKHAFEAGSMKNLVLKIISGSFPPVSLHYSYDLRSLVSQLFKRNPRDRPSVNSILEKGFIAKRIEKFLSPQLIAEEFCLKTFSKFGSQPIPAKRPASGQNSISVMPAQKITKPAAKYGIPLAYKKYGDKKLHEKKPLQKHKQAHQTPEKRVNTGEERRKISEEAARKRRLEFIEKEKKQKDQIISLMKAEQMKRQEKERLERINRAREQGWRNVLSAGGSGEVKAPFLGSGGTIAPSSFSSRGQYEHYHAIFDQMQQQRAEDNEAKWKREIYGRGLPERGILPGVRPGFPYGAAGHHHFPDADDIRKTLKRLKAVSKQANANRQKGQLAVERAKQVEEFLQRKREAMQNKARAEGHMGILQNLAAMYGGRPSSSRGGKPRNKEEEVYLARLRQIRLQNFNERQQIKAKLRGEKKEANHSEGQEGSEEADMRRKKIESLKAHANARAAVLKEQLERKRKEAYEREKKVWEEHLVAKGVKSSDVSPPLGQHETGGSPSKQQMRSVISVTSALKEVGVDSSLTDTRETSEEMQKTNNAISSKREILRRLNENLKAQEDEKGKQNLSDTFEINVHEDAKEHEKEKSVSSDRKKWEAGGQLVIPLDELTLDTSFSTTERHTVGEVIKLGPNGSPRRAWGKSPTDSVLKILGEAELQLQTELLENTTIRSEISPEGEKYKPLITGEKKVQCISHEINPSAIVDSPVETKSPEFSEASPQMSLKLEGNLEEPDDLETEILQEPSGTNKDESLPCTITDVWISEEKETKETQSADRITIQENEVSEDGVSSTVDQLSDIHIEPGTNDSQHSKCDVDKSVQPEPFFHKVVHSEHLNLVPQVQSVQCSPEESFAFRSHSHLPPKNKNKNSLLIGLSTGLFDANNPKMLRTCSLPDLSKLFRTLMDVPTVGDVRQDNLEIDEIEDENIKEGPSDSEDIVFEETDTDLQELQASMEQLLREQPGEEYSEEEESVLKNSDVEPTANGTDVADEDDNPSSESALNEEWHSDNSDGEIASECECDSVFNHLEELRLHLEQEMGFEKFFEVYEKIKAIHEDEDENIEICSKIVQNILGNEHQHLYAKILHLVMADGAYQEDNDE

B1: 3xHA-C21ORF2 wild type (protein, UniProt O43822-1 1-256)
chain: MKLTRKMVLTRAKASELHSVRKLNCWGSRLTDISICQEMPSLEVITLSVNSISTLEPVSRCQRLSELYLRRNRIPSLAELFYLKGLPRLRVLWLAENPCCGTSPHRYRMTVLRTLPRLQKLDNQAVTEEELSRALSEGEEITAAPEREGTGHGGPKLCCTLSSLSSAAETGRDPLDSEEEATSGAQDERGLKPPSRGQFPSLSARDASSSHRGRNVLTAILLLLRELDAEGLEAVQQTVGSRLQALRGEEVQEHAE
[1]
  binding: binds
[2]
  binding: binds
